Assay results reported in PubChem BioAssay AID272 (DTP/NCI, 2004).
The list shows only some results of the screen, not a fair sample: it is rich in T/C values a quarter to a half above the control, in often repeated tests (any T/C) and in doses without a T/C. Other doses and runs of a compound stand elsewhere. T/C is the treated group as % of the vehicle group. Schedules are NCI's codes, taken here to give the interval after Q, in days (D) or hours (H), and the number of doses after X. Some entries give survivors of the animals treated and no T/C: the source files T/C as zero there, which appears to mark a toxic dose or a test without result, not a measured value. Some doses without a T/C left all or most animals alive at the check, yet need not have been tolerated: survival well below the control is almost never listed, so the zero probably covers shortened survival too. Survivors were counted at the toxicity check, usually on the fifth day, unless a day is given; later deaths do not show. Some entries hold several experiments; the values are given in rising order. Signs of the kind (2×) count equal records among those shown. Where survival is the endpoint, the PubChem record calls one and a half times the control and up active, and a quarter to a half above the control has no call in these data; cut-offs in other NCI protocols can differ. Some T/C values carry the count of animals alive at the toxicity check (mostly the fifth day); where none is given, no animal had died by that day.

Test system: Lewis lung carcinoma i.m., BDF1 mice, T/C %
Assay: NCI In Vivo Anticancer Drug Screen. Data for tumor model Lewis Lung Carcinoma (intramuscular) in B6D2F1 (BDF1) mice
Procedure: The antitumor activity of compounds was measured in mice bearing transplantable tumors. Survival or tumor size were measured and the results are expressed as the measurement made in the treated group (T) divided by the measurement made in the vehicle treated control group (C). The tumor model used in this assay is Lewis Lung Carcinoma (intramuscular) in B6D2F1 (BDF1) mice

[1] = T/C endpoint: median survival time, dose: 100.0 mg/kg/injection, schedule: Q01DX011 (ip), vehicle: other, higher T/C = longer survival
[2] = T/C endpoint: median survival time, dose: 200.0 mg/kg/injection, schedule: Q01DX011 (ip), vehicle: other, higher T/C = longer survival
[3] = T/C endpoint: median survival time, dose: 400.0 mg/kg/injection, schedule: Q01DX011 (ip), vehicle: other, higher T/C = longer survival
[4] = T/C endpoint: median survival time, dose: 40.0 mg/kg/injection, schedule: Q01DX011 (ip), vehicle: other, higher T/C = longer survival
[5] = T/C endpoint: median survival time, dose: 80.0 mg/kg/injection, schedule: Q01DX011 (ip), vehicle: other, higher T/C = longer survival
[6] = T/C endpoint: median survival time, dose: 5.0 mg/kg/injection, schedule: Q01DX011 (ip), vehicle: saline with Tween-80, higher T/C = longer survival
[7] = T/C endpoint: median survival time, dose: 20.0 mg/kg/injection, schedule: Q01DX011 (ip), vehicle: saline, higher T/C = longer survival
[8] = T/C endpoint: median survival time, dose: 40.0 mg/kg/injection, schedule: Q01DX011 (ip), vehicle: saline, higher T/C = longer survival

COc1cccc(CC(C)[N+](=O)[O-])c1 (stereo not given)
survivor count [1]: 0 of 8
survivor count [2]: 0 of 8
survivor count [3]: 0 of 8

CCCSc1ncnc2nc[nH]c12
survivor count (T/C endpoint: mean tumor weight, dose: 50.0 mg/kg/injection, schedule: Q01DX011 (ip), vehicle: other, higher T/C = larger tumour): 4 of 8
survivor count (T/C endpoint: median survival time, dose: 50.0 mg/kg/injection, schedule: Q01DX011 (ip), vehicle: other, higher T/C = longer survival): 4 of 8
survivor count [1]: 0 of 8
survivor count [2]: 0 of 8
survivor count [3]: 0 of 8

S=c1nc[nH]c2nc[nH]c12
survivor count (T/C endpoint: mean tumor weight, dose: 65.0 mg/kg/injection, schedule: Q01DX011 (ip), vehicle: other, higher T/C = larger tumour): 3 of 8
survivor count (T/C endpoint: mean tumor weight, dose: 108.0 mg/kg/injection, schedule: Q01DX011 (ip), vehicle: other, higher T/C = larger tumour): 3 of 8 and 5 of 8
T/C (T/C endpoint: median survival time, dose: 16.0 mg/kg/injection, schedule: Q01DX011 (ip), vehicle: other, higher T/C = longer survival): 125 % of control
survivor count (T/C endpoint: median survival time, dose: 32.0 mg/kg/injection, schedule: Q01DX011 (ip), vehicle: other, higher T/C = longer survival): 10 of 10
survivor count (T/C endpoint: median survival time, dose: 39.0 mg/kg/injection, schedule: Q01DX011 (ip), vehicle: other, higher T/C = longer survival): 6 of 8, 7 of 8, 8 of 8
survivor count [4]: 7 of 8
survivor count (T/C endpoint: median survival time, dose: 64.0 mg/kg/injection, schedule: Q01DX011 (ip), vehicle: other, higher T/C = longer survival): 5 of 10 and 7 of 10
survivor count (T/C endpoint: median survival time, dose: 65.0 mg/kg/injection, schedule: Q01DX011 (ip), vehicle: other, higher T/C = longer survival): 1 of 8, 3 of 8, 7 of 8
survivor count [5]: 0 of 8
survivor count (T/C endpoint: median survival time, dose: 108.0 mg/kg/injection, schedule: Q01DX011 (ip), vehicle: other, higher T/C = longer survival): 0 of 8, 3 of 8, 5 of 8
survivor count (T/C endpoint: median survival time, dose: 180.0 mg/kg/injection, schedule: Q01DX011 (ip), vehicle: other, higher T/C = longer survival): 0 of 8 (3×)

N#Cc1c(F)c(F)c(C#N)c(F)c1F
survivor count (T/C endpoint: median survival time, dose: 2.5 mg/kg/injection, schedule: Q01DX011 (ip), vehicle: saline with Tween-80, higher T/C = longer survival): 8 of 8
survivor count [6]: 8 of 8

O=c1[nH]cc(F)c(=O)[nH]1
survivor count (T/C endpoint: mean tumor weight (est.), dose: 5.0 mg/kg/injection, schedule: Q01DX011 (ip), vehicle: saline with Tween-80, higher T/C = larger tumour): 4 of 8
T/C (T/C endpoint: mean tumor weight, dose: 5.0 mg/kg/injection, schedule: Q01DX011 (ip), vehicle: saline, evaluated on day 12, higher T/C = larger tumour): 146 % of control
T/C (T/C endpoint: median survival time, dose: 5.0 mg/kg/injection, schedule: Q01DX011 (ip), vehicle: saline, evaluated on day 39, higher T/C = longer survival): 104 % of control [7 of 8 alive]
T/C (T/C endpoint: median survival time, dose: 5.0 mg/kg/injection, schedule: Q01DX011 (ip), vehicle: saline, evaluated on day 40, higher T/C = longer survival): 97 % of control
T/C (T/C endpoint: median survival time, dose: 5.0 mg/kg/injection, schedule: Q01DX011 (ip), vehicle: saline, evaluated on day 47, higher T/C = longer survival): 98 % of control [7 of 8 alive]
T/C (T/C endpoint: median survival time, dose: 5.0 mg/kg/injection, schedule: Q01DX011 (ip), vehicle: saline, evaluated on day 50, higher T/C = longer survival): 107 % of control
survivor count (T/C endpoint: median survival time, dose: 5.0 mg/kg/injection, schedule: Q01DX011 (ip), vehicle: saline, higher T/C = longer survival): 4 of 8
T/C (T/C endpoint: median survival time, dose: 10.0 mg/kg/injection, schedule: Q01DX011 (ip), vehicle: saline, evaluated on day 39, higher T/C = longer survival): 91 % of control [7 of 8 alive]
T/C (T/C endpoint: median survival time, dose: 10.0 mg/kg/injection, schedule: Q01DX011 (ip), vehicle: saline, evaluated on day 40, higher T/C = longer survival): 107 [7 of 8 alive] and 123 % of control
T/C (T/C endpoint: median survival time, dose: 10.0 mg/kg/injection, schedule: Q01DX011 (ip), vehicle: saline, evaluated on day 47, higher T/C = longer survival): 109 % of control
T/C (T/C endpoint: median survival time, dose: 10.0 mg/kg/injection, schedule: Q01DX011 (ip), vehicle: saline, evaluated on day 50, higher T/C = longer survival): 108 % of control
T/C (T/C endpoint: median survival time, dose: 20.0 mg/kg/injection, schedule: Q01DX011 (ip), vehicle: saline, evaluated on day 40, higher T/C = longer survival): 130 % of control
T/C (T/C endpoint: median survival time, dose: 20.0 mg/kg/injection, schedule: Q01DX011 (ip), vehicle: saline, evaluated on day 47, higher T/C = longer survival): 115 % of control [7 of 8 alive]
survivor count [7]: 3 of 8, 7 of 8, 8 of 8
survivor count (T/C endpoint: median survival time, dose: 40.0 mg/kg/injection, schedule: Q01DX009 (ip), vehicle: saline, higher T/C = longer survival): 10 of 10
survivor count [4]: 0 of 8
survivor count [8]: 0 of 8 (4×)
survivor count (T/C endpoint: median survival time, dose: 80.0 mg/kg/injection, schedule: Q01DX009 (ip), vehicle: saline, higher T/C = longer survival): 10 of 10
survivor count [5]: 0 of 8
survivor count (T/C endpoint: median survival time, dose: 80.0 mg/kg/injection, schedule: Q01DX011 (ip), vehicle: saline, higher T/C = longer survival): 0 of 8 (3×)
survivor count (T/C endpoint: median survival time, dose: 100.0 mg/kg/injection, schedule: Q04DX004 (ip), vehicle: saline, higher T/C = longer survival): 8 of 8
survivor count (T/C endpoint: median survival time, dose: 200.0 mg/kg/injection, schedule: Q04DX004 (ip), vehicle: saline, higher T/C = longer survival): 8 of 8

CC[n+]1ccc(Nc2ccc(NC(=O)c3ccc(Nc4cc[n+](CC)c5ccc(N)cc45)cc3)cc2)cc1
survivor count (T/C endpoint: mean tumor weight, dose: 4.0 mg/kg/injection, schedule: Q01DX011 (ip), vehicle: water, higher T/C = larger tumour): 4 of 8
survivor count (T/C endpoint: median survival time, dose: 4.0 mg/kg/injection, schedule: Q01DX011 (ip), vehicle: water, higher T/C = longer survival): 4 of 8
survivor count (T/C endpoint: median survival time, dose: 6.8 mg/kg/injection, schedule: Q01DX007 (sc), vehicle: saline, higher T/C = longer survival): 8 of 8

COc1ccc([I+]c2ccccc2)cc1
survivor count (T/C endpoint: mean tumor weight, dose: 6.25 mg/kg/injection, schedule: Q01DX011 (ip), vehicle: saline, higher T/C = larger tumour): 3 of 8
survivor count (T/C endpoint: median survival time, dose: 6.25 mg/kg/injection, schedule: Q01DX011 (ip), vehicle: saline, higher T/C = longer survival): 3 of 8
survivor count (T/C endpoint: median survival time, dose: 12.5 mg/kg/injection, schedule: Q01DX011 (ip), vehicle: saline, higher T/C = longer survival): 0 of 8
survivor count (T/C endpoint: median survival time, dose: 25.0 mg/kg/injection, schedule: Q01DX011 (ip), vehicle: saline, higher T/C = longer survival): 0 of 8
survivor count (T/C endpoint: median survival time, dose: 50.0 mg/kg/injection, schedule: Q01DX011 (ip), vehicle: saline, higher T/C = longer survival): 0 of 8

Cc1ccc(NC(=O)N(CCCl)N=O)cc1C
survivor count (T/C endpoint: median survival time, dose: 39.0 mg/kg/injection, schedule: Q07DX003 (ip), vehicle: Klucel (hydroxypropylcellulose) (HPC), higher T/C = longer survival): 8 of 8
survivor count (T/C endpoint: median survival time, dose: 65.0 mg/kg/injection, schedule: Q07DX003 (ip), vehicle: Klucel (hydroxypropylcellulose) (HPC), higher T/C = longer survival): 6 of 8

CCN(CC)CCOC(=O)c1ccccc1N(c1ccccc1)c1ccccc1
survivor count (T/C endpoint: median survival time, dose: 125.0 mg/kg/injection, schedule: Q01DX011 (ip), vehicle: Klucel (hydroxypropylcellulose) (HPC), higher T/C = longer survival): 6 of 8

Cc1[nH]c(=O)[nH]c(=O)c1N(CCF)CCCl
survivor count [6]: 8 of 8
survivor count (T/C endpoint: median survival time, dose: 10.0 mg/kg/injection, schedule: Q01DX011 (ip), vehicle: saline with Tween-80, higher T/C = longer survival): 8 of 8
survivor count (T/C endpoint: median survival time, dose: 20.0 mg/kg/injection, schedule: Q01DX011 (ip), vehicle: saline with Tween-80, higher T/C = longer survival): 7 of 8
survivor count [7]: 7 of 8
survivor count (T/C endpoint: median survival time, dose: 40.0 mg/kg/injection, schedule: Q01DX011 (ip), vehicle: saline with Tween-80, higher T/C = longer survival): 1 of 8 and 6 of 8
survivor count [8]: 0 of 8
survivor count (T/C endpoint: median survival time, dose: 80.0 mg/kg/injection, schedule: Q01DX011 (ip), vehicle: saline with Tween-80, higher T/C = longer survival): 0 of 8 (2×)

CSc1ncnc2c1ncn2C1OC(CO)C(O)C1O (stereo not given)
survivor count (T/C endpoint: mean tumor weight, dose: 15.0 mg/kg/injection, schedule: Q01DX011 (ip), vehicle: saline, higher T/C = larger tumour): 4 of 8
survivor count (T/C endpoint: median survival time, dose: 15.0 mg/kg/injection, schedule: Q01DX011 (ip), vehicle: saline, higher T/C = longer survival): 4 of 8
survivor count (T/C endpoint: median survival time, dose: 30.0 mg/kg/injection, schedule: Q01DX011 (ip), vehicle: saline, higher T/C = longer survival): 0 of 8
survivor count (T/C endpoint: median survival time, dose: 60.0 mg/kg/injection, schedule: Q01DX011 (ip), vehicle: saline, higher T/C = longer survival): 0 of 8

CC(=O)n1cc(F)c(=O)[nH]c1=O
survivor count (T/C endpoint: median survival time, dose: 48.0 mg/kg/injection, schedule: Q01DX011 (ip), vehicle: saline, higher T/C = longer survival): 0 of 8
survivor count (T/C endpoint: median survival time, dose: 96.0 mg/kg/injection, schedule: Q01DX011 (ip), vehicle: saline, higher T/C = longer survival): 0 of 8

CC1C=CC(C(N)C(=O)O)O1 (stereo not given)
survivor count (T/C endpoint: median survival time, dose: 100.0 mg/kg/injection, schedule: Q01DX011 (ip), vehicle: saline, higher T/C = longer survival): 0 of 8
survivor count (T/C endpoint: median survival time, dose: 200.0 mg/kg/injection, schedule: Q01DX011 (ip), vehicle: saline, higher T/C = longer survival): 0 of 8
survivor count (T/C endpoint: median survival time, dose: 400.0 mg/kg/injection, schedule: Q01DX011 (ip), vehicle: saline, higher T/C = longer survival): 0 of 8
